Reference: patent US6083915A, “Method for treating liver cancer” (Biomeasure, Inc., priority 1991, dated 2000)
Not every detail of the peptide structures is certain; ends, links or a residue may be inferred.

System: M5123 hepatoma
Format: in vivo
Details: all three dosages (250, 50, 10 μg), after day 8; FIG. 3
Description: The M5123 hepatoma cells, obtained from Dr. H. P. Morris at the National Cancer Institute, were induced in the Buffalo strain of rats by ingestion of N-(2-fluorenyl-phthalamic acid) and established in serial transplantation. Implantation of the M5123 hepatoma cells in an immunodeficient athymic mouse reproducibly results in progressively growing, lethal tumor.
In contrast to the subrenal capsule assay, in the subcutaneous assay, tumor xenografts are implanted subcutaneously, rather than under the subrenal capsule, and treatment can be initiated at any selected time after the implantation.
In this assay, tumors were implanted subcutaneously in the right flank of athymic female mice and test compounds, BIM-26159, BIM-26187, BIM-26189, BIM-26218, BIM-26223 and BIN-26228, and control were injected subcutaneously in the left flank. For the structures of BIM-26159, BIM-26187, BIM-26189, see "Summary of the Invention" above. The structures of BIM-26223 and BIM-26228 are as follows:
Response of an implanted tumor to the treatment was monitored as follows. The length and width of the tumor were first measured using sensitive Vernier calipers. Tumor weight was then calculated based on the measurements as follows: [length (mm)×width (mm)^2 ]/2 mg. […]

SMILES: CC(C)C[C@@H](CN[C@@H](Cc1ccccc1)C(N)=O)NC(=O)[C@H](Cc1c[nH]cn1)NC(=O)CNC(=O)[C@@H](NC(=O)[C@H](C)NC(=O)[C@H](Cc1c[nH]c2ccccc12)NC(=O)[C@H](CCC(N)=O)NC(=O)[C@H](N)Cc1ccc(Cl)cc1)C(C)C [BIM-26159, D-Cpa-Gln-Trp-Ala-Val-Gly-His-Leu-.psi.[CH2 NH]-Phe-NH2]
- growth rate of the implanted tumor as compared with the control: much lower
